# Source: paper PMC4237283
# Chains of the proteins cited; added tags and fusions are not shown. Lines headed by an entry give the natural chain unless they say otherwise; changes in a name come on top.
# UniProt P98161: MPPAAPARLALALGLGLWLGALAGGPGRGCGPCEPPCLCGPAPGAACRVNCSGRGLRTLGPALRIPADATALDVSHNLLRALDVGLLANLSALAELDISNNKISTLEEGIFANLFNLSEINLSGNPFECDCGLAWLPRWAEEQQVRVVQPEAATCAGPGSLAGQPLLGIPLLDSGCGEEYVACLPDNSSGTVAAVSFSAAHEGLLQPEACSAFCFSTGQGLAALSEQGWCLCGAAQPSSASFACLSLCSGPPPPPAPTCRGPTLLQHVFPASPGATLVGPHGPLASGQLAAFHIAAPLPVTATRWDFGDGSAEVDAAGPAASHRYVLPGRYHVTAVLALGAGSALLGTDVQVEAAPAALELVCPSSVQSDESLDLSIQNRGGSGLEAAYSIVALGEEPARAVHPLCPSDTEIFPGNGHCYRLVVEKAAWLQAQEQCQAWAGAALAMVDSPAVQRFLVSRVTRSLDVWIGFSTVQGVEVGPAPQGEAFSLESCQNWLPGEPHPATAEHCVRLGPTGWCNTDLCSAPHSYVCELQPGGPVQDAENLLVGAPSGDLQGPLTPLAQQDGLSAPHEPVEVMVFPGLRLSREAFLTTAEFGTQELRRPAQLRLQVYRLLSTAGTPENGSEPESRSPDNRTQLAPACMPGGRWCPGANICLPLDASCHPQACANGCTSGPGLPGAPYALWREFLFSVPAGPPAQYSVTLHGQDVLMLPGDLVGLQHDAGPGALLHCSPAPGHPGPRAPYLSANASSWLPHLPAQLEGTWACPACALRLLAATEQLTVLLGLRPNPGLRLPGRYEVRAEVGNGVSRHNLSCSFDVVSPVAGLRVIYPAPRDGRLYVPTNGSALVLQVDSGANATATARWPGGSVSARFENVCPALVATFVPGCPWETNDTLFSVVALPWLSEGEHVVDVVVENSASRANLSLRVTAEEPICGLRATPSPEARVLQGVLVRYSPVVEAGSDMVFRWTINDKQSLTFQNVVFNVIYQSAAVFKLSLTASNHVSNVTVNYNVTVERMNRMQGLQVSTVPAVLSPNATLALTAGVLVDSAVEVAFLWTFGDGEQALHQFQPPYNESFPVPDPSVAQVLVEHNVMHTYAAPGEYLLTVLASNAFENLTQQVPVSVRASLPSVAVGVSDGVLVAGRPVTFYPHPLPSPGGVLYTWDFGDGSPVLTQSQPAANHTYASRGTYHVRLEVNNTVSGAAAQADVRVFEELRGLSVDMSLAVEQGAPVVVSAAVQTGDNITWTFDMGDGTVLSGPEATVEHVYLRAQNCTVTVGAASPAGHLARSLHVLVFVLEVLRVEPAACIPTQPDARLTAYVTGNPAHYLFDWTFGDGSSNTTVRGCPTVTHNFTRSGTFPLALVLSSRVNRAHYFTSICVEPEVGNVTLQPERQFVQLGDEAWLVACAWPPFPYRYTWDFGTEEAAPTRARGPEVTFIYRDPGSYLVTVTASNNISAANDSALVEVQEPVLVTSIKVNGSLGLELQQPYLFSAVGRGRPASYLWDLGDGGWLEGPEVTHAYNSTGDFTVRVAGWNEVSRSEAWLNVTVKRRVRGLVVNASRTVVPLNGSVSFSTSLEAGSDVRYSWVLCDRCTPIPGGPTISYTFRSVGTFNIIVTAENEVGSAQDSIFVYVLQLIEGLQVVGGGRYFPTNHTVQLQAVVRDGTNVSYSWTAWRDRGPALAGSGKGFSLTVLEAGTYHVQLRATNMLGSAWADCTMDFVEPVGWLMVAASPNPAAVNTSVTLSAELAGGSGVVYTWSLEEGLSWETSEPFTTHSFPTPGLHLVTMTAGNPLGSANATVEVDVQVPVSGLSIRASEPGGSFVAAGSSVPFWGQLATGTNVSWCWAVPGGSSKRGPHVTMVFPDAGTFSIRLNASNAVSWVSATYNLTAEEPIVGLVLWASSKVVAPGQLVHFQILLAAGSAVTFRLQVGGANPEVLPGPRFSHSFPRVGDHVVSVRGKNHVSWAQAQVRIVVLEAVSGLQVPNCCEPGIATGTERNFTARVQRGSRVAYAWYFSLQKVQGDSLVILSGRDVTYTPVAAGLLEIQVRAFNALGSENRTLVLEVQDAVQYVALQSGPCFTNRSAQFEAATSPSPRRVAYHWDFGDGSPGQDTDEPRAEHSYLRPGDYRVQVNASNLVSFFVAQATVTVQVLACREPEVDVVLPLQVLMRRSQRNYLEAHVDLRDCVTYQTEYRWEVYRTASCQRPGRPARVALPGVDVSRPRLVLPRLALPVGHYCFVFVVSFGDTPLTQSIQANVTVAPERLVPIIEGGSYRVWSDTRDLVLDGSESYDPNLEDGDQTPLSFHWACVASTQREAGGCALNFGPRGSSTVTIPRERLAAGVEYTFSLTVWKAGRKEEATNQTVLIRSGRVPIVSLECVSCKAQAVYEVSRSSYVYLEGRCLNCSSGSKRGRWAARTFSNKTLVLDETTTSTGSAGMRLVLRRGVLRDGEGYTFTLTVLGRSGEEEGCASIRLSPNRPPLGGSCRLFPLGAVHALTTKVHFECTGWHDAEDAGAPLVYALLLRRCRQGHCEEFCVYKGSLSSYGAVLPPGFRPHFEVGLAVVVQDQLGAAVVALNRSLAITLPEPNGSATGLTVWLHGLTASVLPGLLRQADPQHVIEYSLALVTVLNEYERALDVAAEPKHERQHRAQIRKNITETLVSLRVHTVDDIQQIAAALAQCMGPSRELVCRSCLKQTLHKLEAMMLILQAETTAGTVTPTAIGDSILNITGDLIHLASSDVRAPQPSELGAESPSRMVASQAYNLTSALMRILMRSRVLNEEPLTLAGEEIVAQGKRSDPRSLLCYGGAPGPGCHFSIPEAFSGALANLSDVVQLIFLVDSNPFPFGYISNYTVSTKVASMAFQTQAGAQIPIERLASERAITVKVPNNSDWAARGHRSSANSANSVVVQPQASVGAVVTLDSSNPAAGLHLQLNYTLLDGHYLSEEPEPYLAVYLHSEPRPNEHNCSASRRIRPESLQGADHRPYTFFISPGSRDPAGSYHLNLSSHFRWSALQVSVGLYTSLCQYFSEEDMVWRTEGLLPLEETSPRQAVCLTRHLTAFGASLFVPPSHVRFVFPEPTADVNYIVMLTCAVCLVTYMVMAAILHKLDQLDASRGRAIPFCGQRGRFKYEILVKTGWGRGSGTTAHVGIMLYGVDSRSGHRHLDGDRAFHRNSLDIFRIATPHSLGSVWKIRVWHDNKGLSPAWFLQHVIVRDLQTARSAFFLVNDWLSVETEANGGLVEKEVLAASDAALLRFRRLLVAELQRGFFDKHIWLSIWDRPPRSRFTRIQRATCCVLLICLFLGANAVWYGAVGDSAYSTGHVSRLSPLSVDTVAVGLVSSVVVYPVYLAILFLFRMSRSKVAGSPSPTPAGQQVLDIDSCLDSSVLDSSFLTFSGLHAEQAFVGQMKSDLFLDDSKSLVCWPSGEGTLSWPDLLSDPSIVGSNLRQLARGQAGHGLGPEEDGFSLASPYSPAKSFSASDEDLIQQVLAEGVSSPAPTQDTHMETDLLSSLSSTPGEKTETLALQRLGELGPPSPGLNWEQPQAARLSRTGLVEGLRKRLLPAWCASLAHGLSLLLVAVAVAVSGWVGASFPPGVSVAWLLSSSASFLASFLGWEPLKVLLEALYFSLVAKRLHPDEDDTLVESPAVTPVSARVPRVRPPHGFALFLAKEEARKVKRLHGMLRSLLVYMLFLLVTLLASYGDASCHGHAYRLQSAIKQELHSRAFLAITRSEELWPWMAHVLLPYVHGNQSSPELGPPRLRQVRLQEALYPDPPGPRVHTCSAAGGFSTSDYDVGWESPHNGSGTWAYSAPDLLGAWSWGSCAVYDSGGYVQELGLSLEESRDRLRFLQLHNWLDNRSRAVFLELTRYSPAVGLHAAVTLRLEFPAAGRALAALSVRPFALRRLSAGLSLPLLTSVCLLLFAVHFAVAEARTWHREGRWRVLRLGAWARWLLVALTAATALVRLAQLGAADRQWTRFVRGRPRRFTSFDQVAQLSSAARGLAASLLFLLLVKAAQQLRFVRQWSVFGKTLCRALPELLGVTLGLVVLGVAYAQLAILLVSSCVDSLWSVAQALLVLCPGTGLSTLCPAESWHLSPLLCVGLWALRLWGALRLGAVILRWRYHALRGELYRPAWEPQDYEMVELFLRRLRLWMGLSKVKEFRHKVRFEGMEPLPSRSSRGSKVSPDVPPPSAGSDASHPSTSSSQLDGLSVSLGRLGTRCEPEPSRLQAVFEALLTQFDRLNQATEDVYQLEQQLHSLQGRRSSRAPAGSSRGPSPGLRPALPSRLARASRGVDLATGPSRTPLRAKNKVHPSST
# No constants are given. Whether binding was seen depends on the method and setting. For part of these data: Binding calls can cover weak binding; strength is not graded here. For part of these data: Binding seen in cells or lysates may run through a third protein.
# Tests used:
# [1] = molecular target: Human PC1 215-amino-acid C-terminal tail fused to the GAL4 DNA-binding domain (human) (UniProt P98161); assay: two-hybrid; GAL4 system, YRG-2 yeast; bait in pPC97 (GAL4 DNA-binding domain), prey in pPC86; positive interaction scored by growth on triple selective medium (Leu-, Trp-, His-) and positive β-gal activity
# [2] = molecular target: PC1-M1/M2, C-terminal 89 amino acids of PC1 containing the intact coiled-coil domain (human); assay: as above
# [3] = molecular target: Myc-tagged truncated PC1 lacking the C-terminal 257 amino acids (Pkd1^ΔCMYC/ΔCMYC embryos) (mouse (endogenous knock-in in embryos)); assay: co-IP; lysates of Pkd1^MYC/MYC, Pkd1^ΔCMYC/ΔCMYC and untagged wild-type mouse embryos; Myc-tagged PC1 immunoprecipitated (rabbit anti-Myc is listed among the IP antibodies); western blot
binding [1],binding [2],binding [3],Binder
binds,binds,–,"Rabep1 amino acids 465 to 799 (yeast two-hybrid clone TH10-3) (domain or fragment, UniProt O35550 465-799) GFMLTKDQERAIKAMTPEQEETASLLSSVTQGMESAYVSPSGYRLVSETEWNLLQKEVHNAGNKLGRRCDMCSNYEKQLQGIQIQEAETRDQVKKLQLMLRQANDQLEKTMKEKQELEDFLRQSAEDSSHQISALVLRAQASEVLLEELQQSFSQAKRDVQEQMAVLMQSREQVSEELVRLQKDNDSLQGKHSLHVSLQLAEDFILPDTVQVLRELVLKYRENIVHVRTAADHMEEKLKAEILFLKEQIQAEQCLKENLEETLQLEIENCKEEIASISSLKAELERIKVEKGQLESTLREKSQQLESLQEIKVNLEEQLKKETAAKATVEQLMFE"
–,–,no binding,"Endogenous mouse Rabep1 (protein, UniProt O35551 1-862) MAQPGPAPQPDVSLQQRVAELEKINAEFLRAQQQLEQEFNQKRAKFKELYLAKEEDLKRQNAVLQAAQDDLGHLRTQLWEAQAEMENIKAIATVSENTKQEAIDEVKRQWREEVASLQAIMKETVRDYEHQFHLRLEQERAQWAQYRESAEREIADLRRRLSEGQEEENLENEMKKAQEDAEKLRSVVMPMEKEIAALKDKLTEAEDKIKELEASKVKELNHYLEAEKSCRTDLEMYVAVLNTQKSVLQEDAEKLRKELHEVCHLLEQERQQHNQLKHTWQKANDQFLESQRLLMRDMQRMEIVLTSEQLRQVEELKKKDQEEDEQQRVNKRKDNKKTDTEEEVKIPVVCALTQEESSTPLSNEEEHLDSTHGSVHSLDADLMLPSGDPFSKSDNDMFKDGLRRAQSTDSLGTSSSLQSKALGYNYKAKSAGNLDESDFGPLVGADSVSENFDTVSLGSLQMPSGFMLTKDQERAIKAMTPEQEETASLLSSVTQGMESAYVSPSGYRLVSETEWNLLQKEVHNAGNKLGRRCDMCSNYEKQLQGIQIQEAETRDQVKKLQLMLRQANDQLEKTMKEKQELEDFLKQSAEDSSHQISALVLRAQASEVLLEELQQSFSQAKRDVQEQMAVLMQSREQVSEELVRLQKDNDSLQGKHSLHVSLQLAEDFILPDTVEVLRELVLKYRENIVHVRTAADHMEEKLKAEILFLKEQIQAEQCLKENLEETLQLEIENCKEEIASISSLKAELERIKVEKGQLESTLREKSQQLESLQEMKVNLEEQLKKETAAKATVEQLMFEEKNKAQRLQTELDVSEQVQRDFVKLSQTLQVQLERIRQADSLERIRAILNDTKLTDINQLPET"
